Some of the results follow.

The assay can be described thus: modulators of CD8 T cell-vesicle binding, primary screen, mouse 2C CD8+ T cells, flow cytometry (AID 2052).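 Further: binding gate set so that unloaded-vesicle control wells show 10% double positive cells.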 Particulars: 2C CD8+ T cell-vesicle binding, measured here: CD8+ vesicle-bound cell fraction, at 7 µM, stronger effect = lower value. In short, it runs like this:
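Read-out – percent CD8+ FL2 mean versus row control · System – murine 2C transgenic CD8+ T lymphocytes · Times – 1.5 h cell–vesicle binding at 37 °C, then 20 min icy labelling · Control set – naked vesicles low, QL9 vesicles with vehicle high · Detection – cytometric PE anti-B7-1 and Alexa647 anti-CD8 signals after 1% paraformaldehyde fixation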
Background: In flow cytometry, cells or beads pass a laser one at a time.
As to `O=C(OCCN1CCN(CCOCc2ccccc2)CC1)C(O)(c1ccccc1)c1ccccc1`, the double positive events was found to be 12%.
Under `Cc1ccccc1CN(C)C(=O)COC(=O)C(O)(c1ccccc1)c1ccccc1` stands 29.1%; under `CP(=O)(Nc1ccccc1F)Oc1ccccc1` (configuration not stated), 43%.
Consider `CC(C)c1ccc(OP(C)(=O)Nc2ccc(SC(F)(F)F)cc2)cc1` (configuration not stated), for which the double positive events was determined as 41.1%.
The same measure for `CC(C)(C)C(=O)NC(Sc1ccccc1)C(Cl)(Cl)Cl` (configuration not stated): 2.7%; for `CCOc1ccc(C2=NCC(CBr)S2)cc1` (configuration not stated): 24.1%.
Under `O=P1(Nc2nc3ccc(Cl)cc3s2)COc2ccccc2O1` (configuration not stated) stands 9.3%; under `CP(=O)(Nc1ccccc1)Oc1ccc(F)cc1` (configuration not stated), 12%; under `CCCCCOc1ccc(NP(C)(=O)Oc2ccc(Cl)cc2Cl)cc1` (configuration not stated), 48.7%.
Consider `O=[N+]([O-])c1cc([N+](=O)[O-])c(OC2CCCCC2O)c([N+](=O)[O-])c1` (configuration not stated), for which the double positive events turned out to be 64.5%.
The same measure for `CN(C)C(=O)Oc1noc2ccccc12`: 41.7%.
The same measure for `CC(NC(=O)COC(=O)C(O)(c1ccccc1)c1ccccc1)c1ccccc1` (configuration not stated): 28.2%; for `Cc1ccccc1OP(=O)(Nc1ccccn1)Oc1ccccc1C`: 28.6%; for `CC(=O)NC(SC(=S)N(CC(C)C)CC(C)C)C(Cl)(Cl)Cl` (configuration not stated): 61.7%.
The compound `Cc1ccc(OP(=O)(Nc2ccccn2)Oc2ccc(C)cc2)cc1` yielded a double positive events of 52.7%.
As to `COC(=O)c1cc2c(s1)N=C(c1ccccc1)N(C)P2(=O)N1CCOCC1` (configuration not stated), the double positive events worked out at 59%.
`CCC(=O)N1C2C3N(C(=O)CC)C1C1N(C(=O)CC)C(C(N1C(=O)CC)N3C(=O)CC)N2C(=O)CC` registered a double positive events of 54.4%.
Compound `CCN(CC)CCCOC(=O)C(O)(c1ccccc1)C1CCCCC1` (configuration not stated) registered a double positive events of 15.4%.
Under `O=C(OC1CN2CCC1CC2)c1ccccc1` (configuration not stated) stands 8.9%; under `CCOC(=O)c1ccc(NP(C)(=O)Oc2ccc(F)cc2)cc1` (configuration not stated), 64.1%.
Under `COc1ccc(OP(C)(=O)Nc2ccc(SC(F)(F)F)cc2)cc1` (configuration not stated) stands 31.8%; under `O=C(NC1CCS(=O)(=O)C1)NP(=S)(Oc1ccccc1)Oc1ccccc1` (configuration not stated), 50%.
The same measure for `CCNC(=S)/N=C(\N)N[N+](=O)[O-]`: 5.6%; for `Cc1ccc(NP(=O)(Oc2cccc(C)c2)Oc2cccc(C)c2)nc1`: 14.1%; for `CCOC(=O)NC(Sc1ccccc1)C(Cl)(Cl)Cl` (configuration not stated): 12.5%.
Compound `c1ccc(-c2nn[nH]n2)c(-c2nn[nH]n2)c1` displayed a double positive events of 37.5%.
The same measure for `C(Cc1nn[nH]n1)Cc1nn[nH]n1`: 46%; for `Nc1ccc([As](=O)(O)c2ccc([N+](=O)[O-])cc2)cc1`: 13.8%; for `O=C(OC1CN2CCC1CC2)c1cccc(Cl)c1` (configuration not stated): 51.7%.
`CC(=O)NC(SC(=S)N(C)C)C(Cl)(Cl)Cl` (configuration not stated) came in with a double positive events of 46.4%.
The same measure for `O=[N+]([O-])c1ccc(OP2(=O)COCCO2)cc1` (configuration not stated): 46.7%; for `O=[N+]([O-])c1ncn(CCn2cnc([N+](=O)[O-])n2)n1`: 39.6%.
Under `O=[N+]([O-])c1ccc(O)c(/C=N/Nc2ccc([N+](=O)[O-])cc2[N+](=O)[O-])c1` stands 55.8%.
Under `O=[N+]([O-])c1cc([N+](=O)[O-])c(NCC2CCS(=O)(=O)C2)c([N+](=O)[O-])c1` (configuration not stated) stands 25.1%; under `O=[As](O)(c1ccccc1)c1ccc(O)cc1`, 50.8%.
Regarding `C[C@H]1OP(=O)(Oc2ccccc2)[C@H](O)[C@H](O)[C@H]1N=[N+]=[N-]` (some centres not stated), the double positive events was 35%.
Under `O=P(Nc1nc2ccccc2s1)(c1ccccc1)c1ccccc1` stands 55.5%; under `CN(C)CCOC(=O)C(O)(c1ccccc1)C1CCCCC1` (configuration not stated), 18.1%; under `COc1ccc(NP(C)(=O)Oc2ccccc2OC)cc1` (configuration not stated), 52.1%.
Under `COc1ccc(OP(C)(=O)Nc2cccc(Br)c2)cc1` (configuration not stated) stands 15.5%; under `CN(C)C1(CNC(=O)c2ccc(Cl)c(S(N)(=O)=O)c2)CCCCC1`, 16.3%.
As to `O=P(Nc1ccccn1)(c1ccc(Br)cc1)c1ccc(Br)cc1`, the double positive events was found to be 62.6%.
Under `Cc1ccccc1NP(C)(=O)Nc1ccccc1C` stands 57.2%.
Under `CP(=O)(Nc1ccc2c(c1)OCCO2)Oc1ccccc1` (configuration not stated) stands 30.3%; under `CCOP(C)(=S)SCC(=O)NC(C)(CC)C(=O)O` (configuration not stated), 13.4%; under `c1nnnn1CCn1cnnn1`, 48.6%.
The same measure for `CP(=O)(Nc1ccc(SC(F)(F)F)cc1)Oc1ccc(F)cc1` (configuration not stated): 28.4%; for `O=P(Nc1nccs1)(c1ccccc1)c1ccccc1`: 34%; for `CC(C)C(=O)NC(Sc1ccccc1)C(Cl)(Cl)Cl` (configuration not stated): 40.3%.
`CC1(CBr)Cn2c(nc3ccccc3c2=O)S1` (configuration not stated) returned a double positive events of 8.3%.
Under `Cc1nc2ccc3ccccc3c2s1.O=[N+]([O-])c1cc([N+](=O)[O-])c(O)c([N+](=O)[O-])c1` stands 34.1%.
The same measure for `O=[As](O)(c1ccccc1Br)c1ccccc1Br`: 63.3%.
Under `CN(C(=O)Cc1ccc(Cl)c(Cl)c1)[C@@H]1CCCC[C@H]1N1CCCC1` stands 27.2%; under `CC(C)/C=N\N=C(\N)N[N+](=O)[O-]`, 29%.
In turn, `COc1ccccc1CNC(=O)COC(=O)C(O)(c1ccccc1)c1ccccc1` gave a double positive events of 26.6%.
The same measure for `O=[N+]([O-])c1cc([N+](=O)[O-])c(-c2cnn(-c3ccccc3)c2)c([N+](=O)[O-])c1`: 20.1%; for `CC(C)(C)C(=O)NC(Sc1ncccn1)C(Cl)(Cl)Cl` (configuration not stated): 9.6%; for `Clc1n[nH]nc1-c1nn[nH][15n]1`: 29.1%.
The same measure for `CCOP(=O)(Nc1ccc(C)cn1)OCC`: 39.2%.
The same measure for `CN(CCCl)Cc1cc(Cl)c(NC2=NCCN2)c(Cl)c1`: 36.4%; for `O=[N+]([O-])c1cc([N+](=O)[O-])c(-n2nnc3ccccc32)c([N+](=O)[O-])c1`: 60.6%; for `CCOP(=O)(NC(=NC(C)c1ccccc1)NC(C)c1ccccc1)OCC` (configuration not stated): 19.7%.
`CCC1=CC2Cc3nc4ccc(Cl)cc4c(N)c3C(C1)C2` (configuration not stated): the double positive events worked out at 62.5%.
Under `O=P1(Nc2ccccn2)COc2ccccc2OC1` stands 40.2%; under `Cc1ccc(OCC(=O)OC2CN3CCC2CC3)cc1` (configuration not stated), 36.1%; under `NS(=O)(=O)c1cccc(NC(=O)COC(=O)C(O)(c2ccccc2)c2ccccc2)c1`, 9.3%.
Consider `O=P1(Nc2ccc(Br)cn2)COc2ccccc2OC1`, for which the double positive events was 41.9%.
The same measure for `CCCOc1ccc(NP(C)(=O)Oc2ccc(Cl)cc2)cc1` (configuration not stated): 45.6%; for `Nc1cccc([As](=O)(O)c2ccccc2)c1`: 33.1%.
The same measure for `CP(=O)(Nc1ccc(SC(F)(F)F)cc1)Oc1ccccc1` (configuration not stated): 5.7%; for `COc1ccccc1OP(C)(=O)Nc1c(C)cccc1C` (configuration not stated): 32.7%; for `O=P1(Nc2ncccn2)COc2ccccc2OC1`: 18.7%.
The same measure for `O=C(/C=C/c1ccccc1)OC1CN2CCC1CC2` (configuration not stated): 48.9%; for `CCOC(=O)C(CC)C1=NC(C)(C)Cc2ccccc21.O=[N+]([O-])c1cc([N+](=O)[O-])c(O)c([N+](=O)[O-])c1` (configuration not stated): 35.5%; for `CC1=C2N=C(C=C3N=C(C(C)=C4[N-][C@@](C)([C@@H]5N=C1[C@](C)(CCC(=O)NC[C@@H](C)OP(=O)([O-])O[C@H]1[C@@H](O)[C@@H](n6cnc7cc(C)c(C)cc76)O[C@@H]1CO)[C@H]5CC(N)=O)[C@@](C)(CC(N)=O)[C@@H]4CCC(N)=O)[C@@](C)(CC(N)=O)[C@@H]3CCC(N)=O)C(C)(C)[C@@H]2CCC(N)=O.[C-]#N.[Co+3]`: 33.4%.
`O=[N+]([O-])c1cc([N+](=O)[O-])c(Nc2nnnn2CCO)c([N+](=O)[O-])c1` showed a double positive events of 51.4%.
In turn, `COc1cc(C2NCCC3(OCCO3)C2(C)C)cc(OC)c1OC.O=[N+]([O-])c1cc([N+](=O)[O-])c(O)c([N+](=O)[O-])c1` (configuration not stated) had a double positive events of 41.7%.
The same measure for `Cc1ccc(C(=O)OC2CN3CCC2CC3)cc1` (configuration not stated): 24.3%.
Under `CC1CCC(C(C)C)C(OP(=O)(Nc2ccccn2)c2ccccc2)C1` (configuration not stated) stands 55%; under `Cc1nn(-c2ccccc2)c2c1P(=O)(N1CCOCC1)N(C)C(c1ccccc1)=N2` (configuration not stated), 11.4%; under `CC1=NCCc2c1[nH]c1ccccc21.O=[N+]([O-])c1cc([N+](=O)[O-])c(O)c([N+](=O)[O-])c1`, 39.8%.
Under `CN(C(=O)Cc1ccc(Cl)c(Cl)c1)[C@H]1CC[C@@]2(CCCO2)C[C@@H]1N1CCCC1` stands 24.2%; under `O=[N+]([O-])c1ccc2c(c1)nnn2O`, 34.7%.
Take `CN(C)C(=O)c1cc([N+](=O)[O-])cc2c1-c1c(cc([N+](=O)[O-])cc1[N+](=O)[O-])C2=O`: the double positive events is 25.6%.
Under `CCOP1(=S)c2c(C)nn(CCC#N)c2N=C(c2ccc(F)cc2)N1C` (configuration not stated) stands 29.7%; under `CN(C(=O)Cc1ccccc1)[C@@H]1CC[C@]2(CCCO2)C[C@H]1N1CCCC1`, 23.5%.
Under `N#CCCN(C(=O)COC(=O)C(O)(c1ccccc1)c1ccccc1)c1ccc(F)cc1` stands 29.2%; under `NC(=O)Nc1ccc([As](=O)(O)O)cc1`, 25.5%.
In the case of `O=C(O)COc1ccc([As](=O)(O)O)cc1[N+](=O)[O-]`, the double positive events was 44.5%.
For `Nc1ccccc1[As](=O)(O)c1ccccc1`, the double positive events is 51.6%.
Under `CS(=O)(=O)c1cc([N+](=O)[O-])c2no[n+]([O-])c2c1` stands 32.2%; under `O=P(Nc1nccs1)(Oc1ccccc1)Oc1ccccc1`, 39.1%; under `O=C(O)c1cccc(Nc2c([N+](=O)[O-])cc([N+](=O)[O-])cc2[N+](=O)[O-])c1`, 14.9%.
The same measure for `CCOP1(=S)c2c(C)nn(CCC#N)c2N=C(c2ccccc2F)N1C` (configuration not stated): 42.7%; for `CCOP(=O)(Nc1cccc2ccccc12)OCC`: 49.1%.
The same measure for `Cc1ccc(C)c(NP(C)(=O)Oc2ccccc2)c1` (configuration not stated): 30.1%.
Compound `CCCOP(=S)(Nc1nc(N)cc(=O)[nH]1)OCCC` showed a double positive events of 57.6%.
The same measure for `Cc1ccc(NCCc2c([N+](=O)[O-])cc([N+](=O)[O-])cc2[N+](=O)[O-])cc1`: 26.8%; for `Nc1cccc2c([As](=O)(O)O)cccc12`: 64.7%.
`Cc1cc(C)cc(OP(C)(=O)Nc2ccccn2)c1` (configuration not stated) had a double positive events of 32.5%.
Under `CP(=O)(Nc1cccc(Br)c1)Oc1ccccc1` (configuration not stated) stands 23.1%.
Under `CCOC(=O)c1ccc(NP(C)(=O)Oc2cc(C)cc(C)c2)cc1` (configuration not stated) stands 20.7%; under `Cc1cc(C)cc(OP(C)(=O)Nc2ccc(C)cc2C)c1` (configuration not stated), 17.1%.
The same measure for `Cc1cccc(OCC(=O)OC2CN3CCC2CC3)c1` (configuration not stated): 51.6%; for `O=[As](O)(c1cccc(O)c1)c1cccc(O)c1`: 34.6%; for `COc1ccccc1OP(C)(=O)Nc1cccc(Br)c1` (configuration not stated): 57.3%.
Consider `CS(=O)(=O)c1ccc(Cl)c(NC(=O)COC(=O)C(O)(c2ccccc2)c2ccccc2)c1`, for which the double positive events amounted to 14.1%.

(Values after PubChem BioAssay AID2052 (NMMLSC, 2009).)
